Record: PubChem BioAssay AID652259 (Drosophila RNAi Screening Center, 2013)
Test: 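Knock-downs that push a Wingless-driven reporter up or down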 (primary screen). System: Drosophila clone 8 imaginal disc epithelial cells. Reagents: long dsRNA against Drosophila genes. Challenge: pathway stimulated by co-transfected Wingless expression plasmid. Read-out: 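Dual luciferase reads per well after Wingless plasmid stimulation: reporter firefly light and Renilla control light; activity is firefly divided by Renilla, a ratio not deposited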. Direction: firefly reporter light: higher = more Wg reporter light, before normalisation; Renilla control light: higher = more transfected or surviving cells. Call rule: 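Strong candidates differ from their plate mean by at least two out of four per-plate statistical tests; weak candidates meet just one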. Meaning of the calls: active = candidate regulator (raises or lowers reporter); inactive = not a candidate.
In all, the deposit lists about 22,000 reagents; this is an unselected part of those that have a named target and a result. In the full data, 233 (1.1%) were called active. 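Light values are raw, unnormalised plate reads; the ratio scores behind the reporter calls were not deposited.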 Unmarked entries are inactive. Names joined by + are all predicted targets of the reagent. Reagent sequences are not shown. Not stated in the record: the amount of reagent, the time to read-out, the dose of the treatment.

| target gene | dsRNA | reporter change call, replicate 1 | firefly reporter light, replicate 1 | firefly reporter light, replicate 2 | Renilla control light, replicate 1 | Renilla control light, replicate 2 |
| --- | --- | --- | --- | --- | --- | --- |
| SCAR | DRSC03426 | – | 5261 | 11339 | 1056 | 4199 |
| Dus3 | DRSC02059 | – | 2061 | 8000 | 757 | 3216 |
| Gpo2 | DRSC06822 | – | 3256 | 5768 | 1280 | 2969 |
| FER | DRSC12735 | – | 4873 | – | 2395 | – |
| FER | DRSC16673 | – | 10576 | – | 3289 | – |
| CG31778 | DRSC00283 | – | 12384 | – | 4722 | – |
| CG17029 | DRSC10240 | – | 5828 | – | 3009 | – |
| btsz | DRSC14982 | – | 16329 | – | 1820 | – |
| btsz | DRSC15222 | Wg reporter activity raised (active) | 27333 | – | 2102 | – |
| btsz | DRSC15320 | – | 13785 | – | 3716 | – |
| btsz | DRSC16231 | – | 11233 | – | 2221 | – |
| PolA2 | DRSC16641 | – | 6441 | – | 4418 | – |
| mri | DRSC08259 | – | 9402 | – | 3146 | – |
| sra | DRSC17015 | – | 3152 | 4285 | 560 | 1671 |
| Dys + snoRNA:Me18S-A1374 | DRSC16232 | – | 7426 | – | 3213 | – |
| mim | DRSC05013 | – | 1834 | 6124 | 208 | 930 |
| CG30195 | DRSC04155 | – | 3445 | 8907 | 848 | 3680 |
| pncr004:X (retired record) | DRSC19295 | – | 4167 | – | 1777 | – |
| gcm | DRSC03536 | – | 2886 | 6203 | 1194 | 2832 |
| CG43737 | DRSC19609 | – | 23845 | – | 10601 | – |
| CG43737 | DRSC19610 | – | 21434 | – | 9425 | – |
| wcd | DRSC07051 | – | 14039 | – | 5922 | – |
| Elys | DRSC19571 | – | 1945 | 8501 | 697 | 2284 |
| CG33143 | DRSC04151 | – | 4053 | 7388 | 963 | 3491 |
| CG33143 | DRSC04454 | – | 2368 | 6601 | 472 | 1900 |
| CG14043 | DRSC02368 | – | 2403 | 5905 | 772 | 1985 |
| Tmtc4 | DRSC15702 | – | 17347 | – | 3992 | – |
| CG31792 | DRSC02604 | – | 1713 | 6944 | 352 | 2284 |
| nullo | DRSC18807 | – | 19363 | – | 10999 | – |

3 entries from above, showing only “Renilla control light, replicate 1”.
CG14043 [DRSC02368] = 772
Tmtc4 [DRSC15702] = 3992
CG31792 [DRSC02604] = 352
